Reference: PubChem BioAssay AID192 (DTP/NCI, 2004)
The list is a part of this screen's results and no random one: it gathers tests that were run many times, whatever their T/C, doses with no T/C, and many T/C values between a quarter and a half above the control. Further doses and runs are listed elsewhere. T/C is the treated group as % of the vehicle group. Some doses have a count of surviving animals in place of a T/C: the source holds a T/C of zero for them, seemingly a mark for toxic or unscored doses. Some survivor counts are full or nearly so, which does not show that the dose was tolerated: survival well below the control is almost never listed, so the zero probably covers shortened survival too. Counts of survivors are from the toxicity check (mostly the fifth day) where no day follows; animals may have died later. Schedule codes are those of the source, taken here to give the interval after Q, in days (D) or hours (H), and the number of doses after X. Some entries were tested several times; the values are given in rising order. Where survival is the endpoint, the PubChem record calls one and a half times the control and up active, and a quarter to a half above the control has no call in these data; cut-offs in other NCI protocols can differ. Some T/C values are followed by the survivors on the day toxicity was checked, most often the fifth; where none is given, no animal had died by that day. Square brackets hold non-standard residues; d marks the D form. Peptide text beside a SMILES is read from it. * marks the point of attachment. ξ: configuration not given here. ξAsp(βξ-Me) = CC(C(=O)O)C(N)C(=O)O; X4 = CC(N*)C1NC(=O)C2CCCCN2C1=O; ξAbu(3ξ-NH2) = CC(N)C(N)C(=O)O; X3 = CCC(C)CCC/C=C/CC(=O)*

System: BDF1 mice, B16 melanoma ip, median survival T/C
Experiment: NCI In Vivo Anticancer Drug Screen. Data for tumor model B16 Melanoma (intraperitoneal) in B6D2F1 (BDF1) mice
Settings: T/C endpoint: median survival time, higher T/C = longer survival
Experimental: The antitumor activity of compounds was measured in mice bearing transplantable tumors. Survival or tumor size were measured and the results are expressed as the measurement made in the treated group (T) divided by the measurement made in the vehicle treated control group (C). The tumor model used in this assay is B16 Melanoma (intraperitoneal) in B6D2F1 (BDF1) mice

[1] = dose: 12.5 mg/kg/injection, schedule: Q01DX009 (ip), vehicle: saline
[2] = dose: 50.0 mg/kg/injection, schedule: Q01DX009 (ip), vehicle: Klucel (hydroxypropylcellulose) (HPC)
[3] = dose: 100.0 mg/kg/injection, schedule: Q01DX009 (ip), vehicle: Klucel (hydroxypropylcellulose) (HPC)
[4] = dose: 50.0 mg/kg/injection, schedule: Q01DX009 (ip), vehicle: saline
[5] = dose: 100.0 mg/kg/injection, schedule: Q01DX009 (ip), vehicle: saline
[6] = dose: 200.0 mg/kg/injection, schedule: Q01DX009 (ip), vehicle: Klucel (hydroxypropylcellulose) (HPC)
[7] = dose: 400.0 mg/kg/injection, schedule: Q01DX009 (ip), vehicle: Klucel (hydroxypropylcellulose) (HPC)
[8] = dose: 400.0 mg/kg/injection, schedule: Q01DX009 (ip), vehicle: saline
[9] = dose: 200.0 mg/kg/injection, schedule: Q01DX009 (ip), vehicle: saline with Tween-80
[10] = dose: 150.0 mg/kg/injection, schedule: Q01DX009 (ip), vehicle: saline

CC1=C(C)C(=O)O[C@@H]([C@](C)(O)[C@]2(O)CC[C@@]3(O)[C@@H]4C[C@H]5O[C@]56CC=CC(=O)[C@]6(C)[C@H]4CC[C@]23C)C1
T/C (dose: 3.12 mg/kg/injection, schedule: Q01DX009 (ip), vehicle: saline): 130 % of control | T/C (dose: 6.25 mg/kg/injection, schedule: Q01DX009 (ip), vehicle: saline): 141 % of control | T/C [1]: 147 % of control

COc1ccc2c(c1)C(OC)C1c3c(cc4c(c3-2)OCO4)CCN1C (stereo not drawn)
T/C (dose: 0.5 mg/kg/injection, schedule: Q01DX009 (ip), vehicle: acid diluted with saline): 127 % of control | survivor count (dose: 4.0 mg/kg/injection, schedule: Q01DX009 (ip), vehicle: acid diluted with saline): 9 of 10

CCN(C(=O)CCl)C(C)(C)C(SSSC(c1ccc(Cl)cc1)C(C)(C)N(CC)C(=O)CCl)c1ccc(Cl)cc1 (stereo not drawn)
survivor count [2]: 9 of 10 | survivor count [3]: 8 of 10

[Cl][Pt+2][Cl].[NH-]CC1(C[NH-])CCC1
T/C (dose: 0.6 mg/kg/injection, schedule: Q01DX009 (ip), vehicle: carboxymethylcellulose (CMC)): 145 % of control

CCC(C)CCC/C=C/CC(=O)NC(CC(=O)O)C(=O)NC(C(=O)NC(CC(=O)O)C(=O)NCC(=O)NC(CC(=O)O)C(=O)NCC(=O)NC(C(=O)NC(C(=O)N1CCCC1C(=O)NC(C)C1NC(=O)C2CCCCN2C1=O)C(C)C)C(C)N)C(C)C(=O)O (stereo not drawn) (X3-D[ξAsp(βξ-Me)]DGDG[ξAbu(3ξ-NH2)]VP-X4; configuration not given here)
survivor count (dose: 400.0 mg/kg/injection, schedule: Q01DX009 (ip), vehicle: saline + alcohol): 8 of 10

CN(C)C(=O)c1cccc(COc2ccc(N3C(N)=NC(N)=NC3(C)C)cc2Cl)c1
survivor count [4]: 5 of 10 | survivor count [5]: 0 of 10 and 6 of 6

Nc1ccccc1SC1CC(=O)N(c2ccccc2)C1=O (stereo not drawn)
survivor count [6]: 10 of 10 | survivor count [7]: 9 of 10

CC(C)C[NH-].CC(C)C[NH-].O.O.[Cl][Pt+2][Cl]
T/C (dose: 20.0 mg/kg/injection, schedule: Q01DX009 (ip), vehicle: other): 146 % of control

CCCC[P+](c1ccccc1)(c1ccccc1)c1ccccc1
survivor count [1]: 6 of 6 | survivor count [4]: 6 of 6

CNCCN(C)CCN(C)Cc1ccc(OC)cc1
survivor count [8]: 3 of 10

CCC(C)C(=O)OC1C(=O)OC2CC3C(C)=CC(=O)C(O)C3(C)C3C4(O)OCC23C1C(C)C4O (stereo not drawn)
T/C (dose: 0.7 mg/kg/injection, schedule: Q01DX009 (ip), vehicle: saline with Tween-80): 136 % of control | T/C (dose: 0.7 mg/kg/injection, schedule: Q01DX009 (ip), vehicle: saline): 134 % of control | T/C (dose: 1.4 mg/kg/injection, schedule: Q01DX009 (ip), vehicle: saline with Tween-80): 140 % of control [9 of 10 alive] | T/C (dose: 2.8 mg/kg/injection, schedule: Q01DX009 (ip), vehicle: saline): 137 % of control

Cc1nc(-c2ccccc2)nc2c1CCO2
T/C (dose: 50.0 mg/kg/injection, schedule: Q01DX009 (ip), vehicle: saline with Tween-80): 127 % of control | T/C [9]: 125 % of control [9 of 10 alive]

O=[N+]([O-])c1ccc2[nH]c(=S)sc2c1
survivor count [3]: 3 of 10

O=S(=O)(O)O.[O]=[V]
survivor count (dose: 6.25 mg/kg/injection, schedule: Q01DX009 (ip), vehicle: saline with Tween-80): 10 of 10 | survivor count (dose: 12.5 mg/kg/injection, schedule: Q01DX009 (ip), vehicle: saline with Tween-80): 6 of 6 | survivor count (dose: 25.0 mg/kg/injection, schedule: Q01DX009 (ip), vehicle: saline with Tween-80): 6 of 6

[N-]=[N+]=C1C(=O)NN=C1c1ccccc1
survivor count [6]: 0 of 10 | survivor count [7]: 0 of 10

Cc1cnc2c(NC(=O)CCl)nn(C)c2n1
survivor count [6]: 7 of 10

OC(CCl)CN1CC[N+]2(CC1)CC[N+]1(CCN(CC(O)CCl)CC1)CC2 (stereo not drawn)
T/C (dose: 13.0 mg/kg/injection, schedule: Q01DX009 (ip), vehicle: water): 126 % of control | T/C (dose: 19.0 mg/kg/injection, schedule: Q01DX009 (ip), vehicle: water): 125 % of control | T/C (dose: 29.0 mg/kg/injection, schedule: Q01DX009 (ip), vehicle: water): 130 % of control | T/C (dose: 32.0 mg/kg/injection, schedule: Q01DX009 (ip), vehicle: water): 127 % of control | T/C (dose: 32.0 mg/kg/injection, schedule: Q03HX016 (ip), vehicle: water): 128 % of control | T/C (dose: 32.0 mg/kg/injection, schedule: Q03HX024 (ip), vehicle: water): 141 % of control | survivor count (dose: 37.5 mg/kg/injection, schedule: Q01DX009 (ip), vehicle: saline): 10 of 10 | T/C (dose: 37.5 mg/kg/injection, schedule: Q01DX009 (ip), vehicle: water): 133 % of control | T/C (dose: 44.0 mg/kg/injection, schedule: Q01DX009 (ip), vehicle: water): 136 % of control | T/C [4]: 126 % of control | T/C (dose: 64.0 mg/kg/injection, schedule: Q01DX009 (ip), vehicle: water): 139 % of control | T/C (dose: 64.0 mg/kg/injection, schedule: Q03HX008 (ip), vehicle: water): 131 % of control | T/C (dose: 64.0 mg/kg/injection, schedule: Q03HX016 (ip), vehicle: water): 145 % of control | T/C (dose: 64.0 mg/kg/injection, schedule: Q03HX024 (ip), vehicle: water): 131 % of control | T/C (dose: 66.0 mg/kg/injection, schedule: Q01DX009 (ip), vehicle: saline): 126 % of control [9 of 10 alive] | survivor count (dose: 75.0 mg/kg/injection, schedule: Q01DX009 (ip), vehicle: saline): 9 of 10 | T/C (dose: 75.0 mg/kg/injection, schedule: Q01DX009 (ip), vehicle: water): 145 % of control | T/C [5]: 127 and 128 % of control | T/C (dose: 128.0 mg/kg/injection, schedule: Q01DX009 (ip), vehicle: water): 145 % of control | T/C (dose: 128.0 mg/kg/injection, schedule: Q03HX008 (ip), vehicle: water): 139 % of control | T/C (dose: 128.0 mg/kg/injection, schedule: Q03HX016 (ip), vehicle: water): 145 % of control | T/C [10]: 135 % of control | survivor count [10]: 9 of 10 | T/C (dose: 200.0 mg/kg/injection, schedule: Q01DX009 (ip), vehicle: saline): 143 % of control | T/C (dose: 225.0 mg/kg/injection, schedule: Q01DX009 (ip), vehicle: saline): 134 % of control | survivor count (dose: 225.0 mg/kg/injection, schedule: Q01DX009 (ip), vehicle: water): 10 of 10 | T/C (dose: 256.0 mg/kg/injection, schedule: Q01DX009 (ip), vehicle: water): 137 % of control | survivor count (dose: 256.0 mg/kg/injection, schedule: Q03HX008 (ip), vehicle: water): 1 of 10 | survivor count (dose: 300.0 mg/kg/injection, schedule: Q01DX009 (ip), vehicle: saline): 0 of 10 | survivor count (dose: 300.0 mg/kg/injection, schedule: Q01DX009 (ip), vehicle: water): 6 of 6 | T/C [8]: 143 % of control

CN1C(=O)C=CC1=O
survivor count (dose: 8.0 mg/kg/injection, schedule: Q02DX009 (ip), vehicle: saline): 0 of 10

CCC[CH2][Ge]([Cl])([Cl])[CH2]CCC
survivor count [2]: 10 of 10

C/C=C1\CN(C)[C@H]2Cc3c([nH]c4ccccc34)[C@@H](c3cc4[nH]c5c(c4cc3OC)CCN3C[C@H]4C[C@H](CC)[C@H]3[C@@]5(C(=O)OC)C4)C[C@H]1C2C(=O)OC (stereo partly drawn)
survivor count (dose: 50.0 mg/kg/injection, schedule: Q04DX003 (ip), vehicle: saline with Tween-80): 10 of 10 | survivor count (dose: 100.0 mg/kg/injection, schedule: Q04DX003 (ip), vehicle: saline with Tween-80): 10 of 10 | survivor count [9]: 6 of 6 | survivor count (dose: 400.0 mg/kg/injection, schedule: Q01DX009 (ip), vehicle: saline with Tween-80): 4 of 6

CC(=O)[O][Pb]([CH2]CC(C)C)([CH2]CC(C)C)[CH2]CC(C)C
survivor count (dose: 3.0 mg/kg/injection, schedule: Q01DX009 (ip), vehicle: Klucel (hydroxypropylcellulose) (HPC)): 0 of 10
